This is an account of results in PubChem BioAssay AID1508600 (Functional Genomics Laboratory (NCATS/FGL), 2020).

Among all 53,000 sequences or so, about 3,700 (7%) were called active.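 The calls were made as follows: active = gene knockdowns whose robust z-score for IL-1 alpha signal is at least 2 or at most -2, so actives lie on both sides; inactive = the rest.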 The list shows a part of the results.

This assay is described as follows: Components of the Cytosolic LPS Sensing Pathway: Gene Identification via Genome-wide siRNA Screen.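 Also: robust z of the log signal after scaling to non-targeting control siRNA wells of the plate.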 As to conditions: RAW264.7 macrophages, IL-1a HTRF, actives lie on both sides, screened at 100 nM (by protocol), cells primed 5 h with Pam3CSK4 first. In outline: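 Supernatant IL-1a by HTRF from RAW264.7 cells primed with Pam3CSK4 (5 hours) and transfected with LipidA (24 hour) after 48h siRNA knockdown at 100 nM; cell viability checked with CellTiter-Glo.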
A general note: TR-FRET usually uses a lanthanide donor and a delayed reading to cut background.
As for GGAUCUCACCCAACAGGCUTT against Samd7, the z-score was inactive: 0.416. In the case of CCAUGGUUACCGUGUACUATT against Olfr1513, the z-score is inactive: -0.312. On to GGCUAAAUCAAAGUUAUGATT against Speer4f1, for which the z-score is inactive: -1.37. Turning to GGAGCCUUCACGGGUAUCATT against Slc6a9, the z-score is inactive: -0.878. Turning to GGAUAAAACAGGACUUCUUTT against Dcaf11, the z-score was inactive: 0.778. With GCUUUGGUCGCUCUCGUGATT against Tctex1d1, the z-score is inactive: 0.229. Turning to GGCACAACUCCCUUGUGAUTT against Tlr8, the z-score is inactive: -0.574.

With GGAAGAAAGACUAGACUCGTT against Zfp444, the z-score is inactive: 0.338.

As for GCCAAAUGGGAAAUGGAAGTT against Utp6, the z-score was inactive: 0.34. As for GCGACUCACUGGGAACCUUTT against Col9a3, the z-score is inactive: 0.207. Turning to CCCAAACCAAUUUGUGCCUTT against Add2, the z-score was inactive: -1.53. GGAUAAUGUGGUCAUAGUATT against Ap3m1: the z-score is inactive: 0.655. In the case of GGAUAGCUCAUGAUGCUGUTT against Usp13, the z-score is inactive: -0.885. As to “GGAGGAUCCUGCUAUUCCATT against 4930583K01Rik”, the z-score was active: -2.24. As to CCCUCCAAAAGAAGACUAUTT against Sh3pxd2a, the z-score was inactive: 0.753. Regarding CGCUAUUUACCAGAGUGGGTT against Elp2, the z-score is inactive: -0.0107. Turning to GGAAGGUGAUAUCUUAUGUTT against Elmo3, the z-score is inactive: -0.249.

For the sequence CCUCGUGGUGAAAAUCAACTT against Lpin3, the z-score is inactive: 0.435. As to GGACUUUCUGAUAAAGAACTT against Mmaa, the z-score is inactive: -0.135.

Turning to GCAAGAGACCAUGAGAAAUTT against Ccdc18, the z-score is inactive: -0.149. Regarding GGAUGUGAACAUCGAGGACTT against Il1f10, the z-score was inactive: 1.2. For the sequence GCAAGCUAUUCCACCAUUGTT against Spns3, the z-score was inactive: -0.975. For the sequence CCCACUACUGUAAGACAUGTT against Trim46, the z-score was inactive: 0.614. As for GGCCGUCAGCUUUACACAGTT against Gramd1c, the z-score is inactive: -0.296. In the case of GGUGCUCAUGGAGAAGUUATT against Far2 it was inactive: 0.749; in that of GGAAGAUGUGACCAAUUCUTT against Prokr1, inactive: 0.635; in that of CCAAGCAAGUGGUUAACUUTT against Psat1, inactive: 0.847.

For GCCCAUUAUGAAACUGAAGTT against Nfatc3, the z-score was inactive: 1.45. Then CGCGCUGGUACAAUCUCCUTT against Wwc1, with inactive: 0.828.
